From patent US11058699B2, “Method and compositions for inhibition of double stranded DNA viruses” (WISCONSIN ALUMNI RESEARCH FOUNDATION, priority 2008, dated 2021)
For at least one compound, name, drawing or mass did not settle the structure.

Test system: 293T cells
Assay: Cell cycle status by flow cytometry in 293T cells
Assay type: cell-based, human
Details: 12 μM

## CC(C)[C@H](CO)Nc1nc(Nc2cccc(Cl)c2)c2ncn(C(C)C)c2n1 [Purvalanol A, purvalanol A]
  cell cycle arrest phase: G2/M
